The target of the experiment is T1, fatty-acid-binding protein 5 (FABP5) (mouse (endogenous in activated CD8+ T cells from C57BL/6J mice)) (UniProt Q05816).
T1 sequence: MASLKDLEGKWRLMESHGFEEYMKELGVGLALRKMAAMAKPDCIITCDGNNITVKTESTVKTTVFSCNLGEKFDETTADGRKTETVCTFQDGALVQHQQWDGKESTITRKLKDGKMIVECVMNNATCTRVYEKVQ
Nature of the experiment: co-IP; endogenous proteins in lysate of activated mouse CD8+ T cells (Pierce IP Lysis Buffer); goat anti-mouse FABP5 or rabbit anti-mouse Transgelin-2 antibody (isotype IgG controls) overnight at 4°C, Protein A/G magnetic beads; washed with 1X TBS with 0.05% tween-20 and 0.5M NaCl; western blot. (In western blotting, separated proteins are transferred to a membrane and probed.)

Sequences of proteins named here, by UniProt entry; tags and fusion partners are left off.
UniProt Q9WVA4: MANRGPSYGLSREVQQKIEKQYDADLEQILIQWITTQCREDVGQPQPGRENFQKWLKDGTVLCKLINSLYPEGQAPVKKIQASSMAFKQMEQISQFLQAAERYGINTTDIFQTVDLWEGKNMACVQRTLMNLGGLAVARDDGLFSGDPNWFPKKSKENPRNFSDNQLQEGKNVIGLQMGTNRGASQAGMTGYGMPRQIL

No constants are given. Whether binding was seen depends on the method and setting. Binding seen in cells or lysates may run through a third protein. Some entries that bind do so weakly or less than the wild type.

“Transgelin 2 (TAGLN2) (from UniProt Q9WVA4 1-199)”: the binding entry is recorded as “binds”.

The values are drawn from article PMC10760247.
